Experimental data from PMC12431657, “Discovery and mechanistic insights of dibenzoylmethane as a broad spectrum inhibitor of coronavirus” (PLOS Pathogens, 2025).
Where a name gives a salt, the structure may show the parent alone. Read-outs that look alike come from different tables or passages of the source. Hit rate of the full screen: of about 3,300 compounds, about 60 (2%) showed an effect of 50% or more. The list shows a part of the results. Bridge positions count the residues as written; N and C are the ends. Square brackets hold non-standard residues; d marks the D form. Peptide text beside a SMILES is read from it. * marks the point of attachment. Ileψ(thiazoline)Cys = CC[C@H](C)[C@H](N)C1=N[C@H](C(=O)*)CS1; dOrn = NCCC[C@@H](N)C(=O)O

System: HCoV-OC43
Design: species or system RD; HTS, protection from HCoV-OC43 induced cell death, luminescent cell viability (CellCounting-Lite 2.0), inhibition rate
Settings: 24 h post infection, 1 h compound pre-incubation, 10 µM, inhibitor

Row | SMILES | OC43 Inhibition rate | OC43 Inhibition rate (OC43 Inhibition rate, 24 h)
1 | CCCCCCO [1-Hexanol] | 2.6% | 
2 | C/C(=C\CNc1ncnc2nc[nH]c12)CO [trans-Zeatin] | -2.8% | 
3 | NC(=O)CCC(N)C(=O)O (racemic) [DL-Glutamine] | 3.4% | 
4 | CC(=O)c1ccccc1O [2'-Hydroxyacetophenone] | 0.1% | 
5 | Nc1ncnc2c1ncn2[C@H]1C[C@H](O)[C@@H](CO)O1 [2'-Deoxyadenosine] |  | -0.2%
6 | COc1ccc(-c2cc(=O)c3c(O)c(OC)c(O)c(OC)c3o2)cc1 [Nevadensin] | 0.8% | 
7 | COC(=O)[C@]1(C)CC[C@]2(C(=O)O[C@@H]3O[C@H](CO)[C@@H](O)[C@H](O)[C@H]3O)CC[C@]3(C)C(=CC[C@@H]4[C@@]5(C)C[C@H](O)[C@H](O[C@@H]6OC[C@@H](O[C@@H]7O[C@H](CO)[C@@H](O)[C@H](O)[C@H]7O)[C@H](O)[C@H]6O)[C@@](C)(CO)C5CC[C@]43C)[C@H]2C1 (stereo partly drawn) [Esculentoside H] | 0% | 
8 | C[C@H]1CC[C@@]2(OC1)O[C@H]1C[C@H]3[C@@H]4CC=C5C[C@@H](O[C@@H]6O[C@H](CO)[C@@H](O)[C@H](O[C@@H]7OC[C@@H](O)[C@H](O)[C@H]7O)[C@H]6O[C@@H]6O[C@@H](C)[C@H](O)[C@@H](O)[C@H]6O)CC[C@]5(C)[C@H]4CC[C@]3(C)[C@H]1[C@@H]2C [Liriope muscari baily saponins C] | 66.1% | 
9 | COc1cc(O[C@@H]2O[C@H](CO)[C@@H](O)[C@H](O)[C@H]2O)c2c(O)c(C(C)=O)c(C)cc2c1 [Torachrysone-8-O-b-D-glucoside] | 0.6% | 
10 | COc1cc([C@@H]2c3cc4c(cc3[C@H](O)[C@H]3COC(=O)[C@@H]23)OCO4)cc(OC)c1OC [Picropodophyllin] | 5.9% | 
11 | O=c1cc(-c2ccccc2)oc2c(O)c(O)cc(O)c12 [Norwogonin] | -0.3% | 
12 | CC(C)=CCC/C(C)=C/Cc1c(O)ccc(C(=O)/C=C/c2ccc(O)cc2)c1O [Xanthoangelol] | 4.7% | 
13 | CC(C)=CCC[C@](C)(O)[C@H]1CC[C@]2(C)[C@@H]1[C@H](O)C[C@@H]1[C@@]3(C)CC[C@H](O)C(C)(C)[C@@H]3CC[C@]12C [(20S)-Protopanaxadiol] | 33% | 
14 | Nc1ncnc2c1ncn2[C@@H]1O[C@H](COP(=O)(O)OP(=O)(O)OP(=O)(O)O)[C@@H](O)[C@H]1O [ATP (disodium salt hydrate)] |  | -0.2%
15 | CC[C@H]1CN2CC[C@]3(C(=O)Nc4ccccc43)[C@@H]2C[C@@H]1/C(=C\OC)C(=O)OC [Rhynchophylline] | 2.9% | 
16 | O=C(O)CCCC(=O)O [Glutaric acid] | -0.5% | 
17 | C[C@]12C[C@@H](O)[C@@H]3C[C@@]1(O[C@@H]1O[C@H](CO)[C@@H](O)[C@H](O)[C@H]1O)[C@]3(COC(=O)c1ccccc1)C(=O)O2 [Albiflorin] | -0.4% | 
18 | C1=C2CCCN[C@H]2[C@@H]2C[C@H]1[C@H]1CCCCN1C2 [Aloperine] | 26.4% | 
19 | NC(=O)[C@@H](N)Cc1c[nH]c2ccccc12 [H-Trp-NH2.HCl] | 0.1% | 

Row | SMILES | OC43 Inhibition rate | OC43 Inhibition rate (OC43 Inhibition rate, 24 h)
20 | COc1ccc(-c2coc3c([C@@H]4O[C@H](CO)[C@@H](O)[C@H](O)[C@H]4O)c(O)ccc3c2=O)cc1 [4'-Methoxypuerarin] | 2.5% | 
21 | O=c1cc(CO)occ1O [Kojic acid] | -0.2% | 
22 | C=CCSC[C@H](N)C(=O)O [S-Allyl-L-cysteine] | 5% | 
23 | COc1cc(CNC(=O)CCCCCCCC(C)C)ccc1O [Homodihydrocapsaicin I] | 6.8% | 
24 | CC(CC(=O)CC(C)(O)[C@H]1CC(=O)[C@@]2(C)C3=C(C(=O)C[C@]12C)[C@@]1(C)CCC(=O)C(C)(C)[C@@H]1C[C@@H]3O)C(=O)O (stereo partly drawn) [Ganoderic acid N] | 0.7% | 
25 | C=C1CCOC1=O [Tulipalin A] | 28.2% | 
26 | COc1ccc(-c2cc(=S)ss2)cc1 [Anethole trithione] | 24.4% | 
27 | COc1cc(C2Oc3ccc([C@H]4Oc5cc(O)cc(O)c5C(=O)[C@@H]4O)cc3OC2CO)ccc1O (stereo partly drawn) [Isosilybin] | 1.2% | 
28 | CC(=O)O[C@@H]1CC[C@@]2(C)[C@@H](CC[C@]3(C)[C@@H]2CC=C2[C@@H]4[C@@H](C)[C@H](C)CC[C@]4(C)CC[C@]23C)[C@@]1(C)C(=O)O [3-Acetyl-beta-boswellic acid] | 66.7% | 
29 | C/C=C(\C)C(=O)OC1c2c(ccc3ccc(=O)oc23)OC(C)(C)C1OC(=O)/C(C)=C/C (stereo not drawn) [Praeruptorin B] | 7.3% | 
30 | C=CCSSSCC=C [Diallyl Trisulfide] | -3.7% | 
31 | CC(=O)Nc1ccn([C@@H]2O[C@H](COP(=O)(O)OP(=O)(O)OP(=O)(O)O)[C@@H](O)[C@H]2O)c(=O)n1 [N4-Acetylcytidine triphosphate (sodium)] | 0.7% | 
32 | COc1cc(CCC(O)CCCCc2ccccc2)ccc1O (stereo not drawn) [Oxyphyllacinol] | 0.5% | 
33 | Cn1c(=O)[nH]c2ncn(C)c2c1=O [Paraxanthine] | -0.1% | 
34 | COc1cc2c(cc1OC)-c1cc3ccc(OC)c(OC)c3c[n+]1CC2 [Palmatine (hydroxide)] |  | -1.7%
35 | C[C@H]1[C@H](C)CC[C@]2(C(=O)O[C@@H]3O[C@H](CO[C@@H]4O[C@H](CO)[C@@H](O[C@@H]5O[C@@H](C)[C@H](O)[C@@H](O)[C@H]5O)[C@H](O)[C@H]4O)[C@@H](O)[C@H](O)[C@H]3O)CC[C@]3(C)C(=CC[C@@H]4[C@@]5(C)C[C@@H](O)[C@H](O)[C@@](C)(CO)[C@@H]5[C@H](O)C[C@]43C)[C@H]12 [Madecassoside] | -1% | 
36 | O[C@H]1CCN2Cc3ccccc3N=C12 [Vasicine (hydrochloride)] | -2.2% | 
37 | C[C@@H](CO[C@@H]1O[C@H](CO)[C@@H](O)[C@H](O)[C@H]1O)[C@@H]1CC[C@@]2(CC[C@]3(C)[C@H](CC[C@@H]4[C@@]5(C)CC[C@H](O[C@@H]6O[C@H](CO)[C@@H](O)[C@H](O)[C@H]6O[C@@H]6OC[C@@H](O)[C@H](O)[C@H]6O)[C@@](C)(CO[C@@H]6O[C@H](CO)[C@@H](O)[C@H](O)[C@H]6O)[C@@H]5CC[C@]43C)[C@H]2O)CO1 [Hosenkoside M] | 3.5% | 
38 | NC(CCSSCCC(N)C(=O)O)C(=O)O (stereo not drawn) [4,4'-Disulfanediylbis(2-aminobutanoic acid)] | -0.3% | 

Rewritten as tab-separated lines: entries from further up
Row	SMILES	OC43 Inhibition rate	OC43 Inhibition rate (OC43 Inhibition rate, 24 h)
26	COc1ccc(-c2cc(=S)ss2)cc1 [Anethole trithione]	24.4%	
27	COc1cc(C2Oc3ccc([C@H]4Oc5cc(O)cc(O)c5C(=O)[C@@H]4O)cc3OC2CO)ccc1O (stereo partly drawn) [Isosilybin]	1.2%	
28	CC(=O)O[C@@H]1CC[C@@]2(C)[C@@H](CC[C@]3(C)[C@@H]2CC=C2[C@@H]4[C@@H](C)[C@H](C)CC[C@]4(C)CC[C@]23C)[C@@]1(C)C(=O)O [3-Acetyl-beta-boswellic acid]	66.7%	

Carrying on:

Row | SMILES | OC43 Inhibition rate | OC43 Inhibition rate (OC43 Inhibition rate, 24 h)
39 | OC[C@H]1O[C@H](O[C@H]2O[C@H](CO)[C@@H](O)[C@H](O)[C@H]2O)[C@H](O)[C@@H](O)[C@@H]1O [D-(+)-Trehalose] |  | 2.4%
40 | C[C@H]1[C@H](C)CC[C@]2(CO)CC[C@]3(C)C(=CC[C@@H]4[C@@]5(C)CC[C@H](O)C(C)(C)[C@@H]5CC[C@]43C)[C@H]12 [Uvaol] | -0.1% | 
41 | CC(C)(CO)[C@@H](O)C(=O)NCCC(=O)O [D-Pantothenic acid] |  | 1.1%
42 | C[N+](C)(C)CCO [L-Uridine] | -1.6% | 
43 | O=C(c1ccc(O)cc1)c1c(O)cc(O)c([C@@H]2O[C@H](CO)[C@@H](O)[C@H](O)[C@H]2O)c1O [Iriflophenone 3-C-glucoside] | -0.4% | 
44 | CC(=O)OC[C@H](N)C(=O)O [O-Acetylserine] | -0.4% | 
45 | Oc1cc(O)c2c(c1)O[C@H](c1cc(O)c(O)c(O)c1)[C@H](O)C2 [(-)-Epigallocatechin] | -0.4% | 
46 | O=C(/C=C/c1ccc(O[C@@H]2O[C@H](CO)[C@@H](O)[C@H](O)[C@H]2O[C@@H]2OC[C@](O)(CO)[C@H]2O)cc1)c1ccc(O)cc1O [Isoliquiritin apioside] | -0.9% | 
47 | O=C1CC(c2ccc(O)cc2)Oc2cc(O)cc(O)c21 (racemic) [(±)-Naringenin] | 1.1% | 
48 | COc1cc(/C=C/C(=O)OC(C)C)ccc1O [Isopropyl ferulate] | 0.7% | 
49 | CC(C)CCCCCCCCCCCC(=O)O [13-Methyltetradecanoic acid] | -0.6% | 
50 | Nc1ncnc2c1ncn2[C@@H]1O[C@H](COP(=O)(O)O)[C@@H](O)[C@H]1O [Adenosine monophosphate] |  | 0%
51 | O=c1ccc2ccc(O[C@@H]3O[C@H](CO)[C@@H](O)[C@H](O)[C@H]3O)cc2o1 [Skimmin] | -0.4% | 
52 | c1ccc(CSSCc2ccccc2)cc1 [Dibenzyl disulfide] | 0% | 
53 | CC(S)C(=O)NCC(=O)O (stereo not drawn) [Tiopronin] | -0.6% | 
54 | Cc1c[nH]c2ccccc12 [Skatole] | 2% | 
55 | O=C(c1ccccc1)C(O)c1ccccc1 (stereo not drawn) [Benzoin] | -0.1% | 
56 | CC(C)=CCC[C@](C)(O)[C@H]1CC[C@]2(C)[C@@H]1[C@H](O)C[C@@H]1[C@@]3(C)C[C@@H](O)[C@H](O[C@@H]4O[C@H](CO)[C@@H](O)[C@H](O)[C@H]4O[C@@H]4O[C@H](CO)[C@@H](O)[C@H](O)[C@H]4O)C(C)(C)[C@@H]3CC[C@]12C [Gypenoside L] | -0.2% | 
57 | CC[C@H](C)[C@H](N)C1=N[C@H](C(=O)N[C@@H](CC(C)C)C(=O)N[C@H](CCC(=O)O)C(=O)N[C@H](C(=O)N[C@H]2CCCCNC(=O)[C@H](CC(N)=O)NC(=O)[C@@H](CC(=O)O)NC(=O)[C@H](Cc3cnc[nH]3)NC(=O)[C@@H](Cc3ccccc3)NC(=O)[C@H]([C@@H](C)CC)NC(=O)[C@@H](CCCN)NC2=O)[C@@H](C)CC)CS1 [Bacitracin] ({Ileψ(thiazoline)Cys}-L[dE]IK[dOrn]I[dF]H[dD]N; lactam 4-C) | -0.3% | 
